PMC10163288
The list shows a part of the results.

B1: il10ra_site1_normal_mot_HHH_b2_00345_af2_000000013_0001_42_56_H_._HHH_b1_07352_af2_0001_0000300020_0000002_0 (protein)
chain: SSSSTEVQEIAARAVQLAFRLSDEETLQELWELFKKYIEEGDEEYRERLEELLEELEERLSSSSS
B2: il10ra_site1_sap_17_mot_HHH_b2_00441_000000147_0001_1_18_H_._HHH_b1_07716_0001_0000800059_0000001_0_0001_af2pred_0001 (protein)
chain: SSSSDVEEQVKRLLLEALEIRDPEERKEVLEEAERLARENNDPELELLVEAAKFLIEESFSSSSS
B3: il10ra_site1_sap_21_mot_HHH_b1_07962_000000254_0001_41_55_H_._HHH_b2_04450_0001_0000400041_0000001_0_0001 (protein)
chain: SSSSDQREQHLRAIKWFAEWSWELGNRHIARRAVEIAIELAEELNNPEILEELRQLLEELESSSS
B4: il10ra_site1_normal_mot_HHH_b1_05021_af2_000000167_0001_42_56_H_._HHH_b1_01558_af2_0001_0000200008_0000001_0_af2pred_0001 (protein)
chain: SSSSTERTEEVQELLEEAIELLRNGNPEEAREVLEEAREIAEEGNNPLLKWIVEWALRLLSSSSS
B5: il10ra_site1_normal_mot_HHH_b2_01397_000000078_0001_23_39_H_._HHH_b1_06054_0001_0000200024_0000002_0 (protein)
chain: SSSSDEEDRRYVKLTARFARFLLEEGDEEAARRLVRAAEDVAKRANDPELLRELEELLEELSSSS
B6: il10ra_site1_sap_27_mot_HHH_b2_08186_000000021_0001_43_56_H_._HHH_b2_05088_af2_0002_0000900025_0000001_0_0001_af2pred_0001 (protein)
chain: SSSSDDEEKIRLTLRFAEWLLEQGDPEAAEFYLKAAEELARRINNEELEEKIKELQEEVRSSSSS
B7: il10ra_site1_normal_mot_HHH_b2_03220_af2_000000223_0001_23_40_H_._HHH_b1_06979_af2_0001_0000400016_0000001_0 (protein)
chain: SSSSSEAEEVWKLLRRILELRAHGNPEEAERLLEEAERLVEEANNLVLKFAVEAVRRAVRLSSSS
B8: il10ra_site1_sap_25_mot_HHH_b1_02665_000000293_0001_1_18_H_._a4073ed34bad1529e7d46a7d39fa26d0_0001_af2_0001_0000400008_0000001_0_0001 (protein)
chain: SSSSTLERSIEHMLRAIERARELGDEEYVKLALKFVKRSAEALNDEEARRLVEELEERLRSSSSS
B9: il10ra_site1_normal_mot_HHH_b2_07784_af2_000000103_0001_19_36_H_._HHH_b1_01959_0001_0000200017_0000002_0 (protein)
chain: SSSSDLYERVKEAIEEIVRLLREGNPEEAEELAEEAERLVKENNNETTLFQLEFLIRLVQRSSSS
B10: il10ra_site1_sap_31_mot_HHH_b1_05377_000000047_0001_42_55_H_._HHH_b1_03657_0001_0000500029_0000001_0_0001_af2pred_0001 (protein)
chain: SSSSTAEQLVRAALKAAKIAREHGDEEKVEKILEIAKLIARVANNEELEEAIKRFEEELRSSSSS
B11: il10ra_site1_sap_26_mot_HHH_b2_02366_000000098_0001_18_34_H_._249ddc539912ed11994fc964835e7f91_0001_0001_0000100006_0000002_0_0001 (protein)
chain: SSSSDEEERLEELKERLKELLEEGDTRRLSREAQEALRLAIQLGDKETLREIWELIKKAESSSSS
B12: il10ra_site1_normal_mot_HHH_b1_02997_000000220_0001_39_52_H_._HHH_b2_04343_0001_0000400024_0000002_0 (protein)
chain: SSSSSSDLYELSREAAELLFEGNPEEAREVLEEAREIAEEKNNLNHLINIEYLERDVNSSSSSSS
B13: il10ra_site1_normal_mot_HHH_b2_05323_000000159_0001_1_18_H_._HHH_b2_05670_af2_0001_0000200013_0000001_0 (protein)
chain: SSSSSDEVLELTLEAFRLALRGDPEEAKEVLEEALRLAEEAGNERLIRQIRNLLEVLERLSSSSS
B14: il10ra_site1_sap_18_mot_HHH_b1_06789_af2_000000041_0001_1_20_H_._HHH_b2_00598_0001_0000200011_0000001_0_0001 (protein)
chain: SSSDEEERAVELFVKAARLIEEGDEEEAEKLLEELRELVEKIGDPRFRMSVRFLEALLRAHSSSS
B15: il10ra_site1_sap_15_mot_HHH_b2_04680_000000215_0001_1_16_H_._HHH_b1_07329_0001_0000300030_0000001_0_0001 (protein)
chain: SSSSDERVRRIYEILRRVVELHHEGDREEAERLLEEAERLAEEANDRVLLAVIEFLERLLESSSS
B16: il10ra_site1_sap_18_mot_HHH_b2_07145_000000158_0001_24_40_H_._394de4c172568015e4b749d6fe9a249d_0001_af2_0001_0000900017_0000001_1_0001_af2pred_0001 (protein)
chain: SSSSSEEQERVSELLIRAFAAATQGNPEEAERLLEEAEEVAQEGNDPRLEQMVEIVKRELSSSSS
B17: il10ra_site1_sap_24_mot_HHH_b2_02354_af2_000000157_0001_40_56_H_._HHH_b1_08177_0001_0000200023_0000001_0_0001_af2pred_0001 (protein)
chain: SSSSSSREVVELLRKAAELLAEGNFEEAQRVLEEAEELAKEANDQTAEVLVEFLLKHVEQSSSSS
B18: il10ra_site1_sap_21_mot_HHH_b1_04771_000000013_0001_40_56_H_._HHH_b1_05247_0001_0000500023_0000001_0_0001 (protein)
chain: SSSSDQEEELVRAAIRLIEQLIKNGNPEAARMILWAAEKLAKEINNPELLEELEELKELLNSSSS
B19: il10ra_site1_sap_23_mot_HHH_b2_00066_000000124_0001_1_17_H_._HHH_b2_06951_af2_0001_0000300008_0000002_0_0001 (protein)
chain: SSSSDAEEEVEELLREAEELIERGDPREAIKVLAEAVRAAFHAGNEELLQAVWELVRKLRSSSSS
B20: il10ra_site1_normal_mot_HHH_b1_05326_000000242_0001_1_20_H_._HHH_b1_03012_af2_0001_0000300020_0000001_0 (protein)
chain: SSSSSEELEEALKLSREAFRLLLRGNEEEAEKVLREAEELLEKAGDPRLLRVVRDLLQVISSSSS
B21: il10ra_site1_sap_24_mot_HHH_b1_07256_000000044_0001_1_17_H_._HHH_b2_00272_0001_0000100004_0000003_0_0001_af2pred_0001 (protein)
chain: SSSSSEFREVVELLRKAAEALTDGNPEEAEELLEKAEEIARQINDEEALLLVEFLQKRVGSSSSS
B22: il10ra_site1_normal_mot_HHH_b1_05326_000000242_0001_1_20_H_._HHH_b2_04330_af2_0001_0000100008_0000001_0 (protein)
chain: SSSSSDNEEALRLSIHAFRLALRGNPEEARELLEEALELAERANNEKLFRQIEELLETLHSSSSS
B23: il10ra_site1_normal_mot_HHH_b1_06256_000000091_0001_42_58_H_._HHH_b1_07210_0001_0000100001_0000002_0 (protein)
chain: SSSSSAEEVAELLQRAVRLIFNGNPEEAQKLLEEAERIAEENNDEELERYIEAVERFLESHSSSS
B24: il10ra_site1_normal_mot_HHH_b1_00666_000000226_0001_43_56_H_._HHH_b2_03893_0001_0000400033_0000002_0 (protein)
chain: SSSSSSDIEELLREAEELIEEGDPEEALEVLTEAIRLALERGDEELLQELWELVLRLASSSSSSS

The binders below were run against il10ra, Q13651 (assay: yeast display titration).

Apparent Kd, inactive:
B1 no binding seen, B2 no binding seen, B3 no binding seen, B4 no binding seen, B5 no binding seen, B6 no binding seen, B7 no binding seen, B8 no binding seen, B9 no binding seen, B10 no binding seen, B11 no binding seen, B12 no binding seen, B13 no binding seen, B14 no binding seen, B15 no binding seen, B16 no binding seen, B17 no binding seen, B18 no binding seen, B19 no binding seen, B20 no binding seen, B21 no binding seen, B22 no binding seen, B23 no binding seen, B24 no binding seen
